Assay results published in PMC10163288.
The other results are listed elsewhere or left out.

B1: il2ra_site2_2erj_sap_22_mot_HHH_b2_07139_000000086_0001_40_57_H_._HHH_b2_03099_0001_0000300023_0000001_0_0001 (protein)
chain: SSSSTDEVRELFEEAHRLFKEGNEEELRELLEEVRKLAEELNDPALRALVRFLELAIKAFSSSSS
B2: il2ra_site2_2erj_normal_mot_HHH_b1_01197_000000128_0001_38_49_H_._HHH_b1_08340_0001_0000900033_0000001_0 (protein)
chain: SSSSDELEERIRELLEELEKLVKEGDLARVQEVAQEIAELLRELGDPELAKELNRLLQEAMSSSS
B3: il2ra_site2_3nfp_normal_mot_0136b98644bc9a8eb58b95019b738ebb_0001_1_000000071_0001_1_13_H_._HHH_b1_04998_0001_0000800011_0000001_0_af2pred_0001_af2pred_1 (protein)
chain: SSSSSDEVAELFRKVAERARKLTDPELQKQVLLLLAQAFLLLEEGNPEEAEKLLEEALELSSSSS
B4: il2ra_site2_3nfp_normal_mot_HHH_b2_04451_000000238_0001_21_37_H_._HHH_b2_06904_0001_0000100004_0000001_0 (protein)
chain: SSSSSSDEERIEELLELVEEIDDQFERLRVLLEASKLAAELGDEELAREVLRLFAEIQSSSSSSS
B5: il2ra_site2_3nfp_sap_17_mot_73f63e3ba0c5fbd29b02c38bc3203c89_0001_1_000000101_0001_17_33_H_._HHH_b1_05402_0001_0000200013_0000001_0_0001_af2pred_0001_af2pred (protein)
chain: SSSSSLEEVVERAKELAKEVTDQRVRFELRLLAFELERTGDPRLEELLERLIRLVEEALKGSSSS
B6: il2ra_site1_1z92_normal_mot_HHH_b1_00108_af2_000000035_0001_38_51_H_._753cdabf4d6139bcd7e966370e577bbb_0001_0001_0000300027_0000001_0_af2pred_0001_af2pred_1 (protein)
chain: SEEEELERKLKELGVPPAVVRNVVSLFLILKEQGASPESIEKILEKSAKVAKDPELERAIEIIIH
B7: il2ra_site1_3nfp_sap_15_mot_HHH_b1_00042_af2_000000196_0001_42_57_H_._HHH_b2_05531_0001_0000700045_0000001_0_0001_af2pred_0001_af2pred (protein)
chain: SSSSTRLREHLIRSAKRLAELLNDDEALRRIEKLEEEIEREGDPRLVQELFRLVEELIRRGSSSS
B8: il2ra_site1_2b5i_normal_mot_HHH_b1_06341_af2_000000029_0001_17_35_H_._HHH_b2_05139_af2_0001_0000300023_0000001_0_af2pred_dldesign_0_af2pred (protein)
chain: SSSSDEVYDEIDRLYTEALKLKRAGKKEEAKELLEKALELAQAANDEKAISQLTKLLESLSSSSS
B9: il2ra_site1_1z92_sap_20_mot_HHH_b1_07192_af2_000000222_0001_1_19_H_._HHH_b1_06866_af2_0001_0000100001_0000001_0_0001 (protein)
chain: SSSSDEEEEIKRLVREIVEELGLSEHTKEALERDAERDFELGLSERSIEMALRRAAERFLSSSSS
B10: il2ra_site2_3nfp_normal_mot_ems_3hM_287_af2_000000177_0001_46_64_H_._HHH_b2_05811_af2_0001_0000100005_0000001_0 (protein)
chain: SSSSSEEEAEERIEELLREAKEIPDPEERRRLIAEAAHLAVELNNFELFAAVTELLRELISSSSS
B11: il2ra_site2_3nfp_normal_mot_HHH_b1_01086_000000225_0001_20_36_H_._HHH_b2_07947_0001_0000100002_0000001_0_af2pred_0001_af2pred (protein)
chain: SSSSSSDEEEEVEELLEEAKHIDDPFERFAALADAARLALEAKNPELVRLVLELSAKLSSSSSSS
B12: il2ra_site2_3nfp_sap_21_mot_HHH_b1_01221_af2_000000126_0001_40_57_H_._HHH_b2_06118_af2_0001_0000300008_0000001_0_0001 (protein)
chain: SSSSDEEERLEELIEELRRLKEEGDRERAMEVLMELSELALEVGDEEAVRFVLEYFAELQSSSSS
B13: il2ra_site1_2b5i_normal_mot_ems_3hM_3687_af2_000000248_0001_45_64_H_._HHH_b2_00860_af2_0001_0000400030_0000001_0_af2pred_dldesign_0_af2pred (protein)
chain: SSSSNRRETLLEIERLFKEAEEEEDKEKAKELLEKALELAKKAKDEAAVKQIEEELEELKSSSSS
B14: il2ra_site1_2b5i_normal_mot_HHH_b1_01419_af2_000000080_0001_42_53_H_._HHH_b2_00795_af2_0001_0000100010_0000001_0_af2pred_dldesign_0_af2pred (protein)
chain: SSSSSSEEEKAAEVHDLALEAFKLKDKEERKKVLDKALELAKELGDEKLIAEIEYLKEKLSSSSS
B15: il2ra_site1_1z92_sap_14_mot_HHH_b1_00499_000000182_0001_1_17_H_._HHH_b2_06812_af2_0001_0000100005_0000001_0_0001_af2pred_0001_af2pred_1 (protein)
chain: SSSSTKELRELLEEADRLAKRIDREGDPRLREELEELLEEAEELGSKFLVRAIRDALELLESSSS
B16: il2ra_site1_1z92_normal_mot_HHH_b2_06855_af2_000000074_0001_38_49_H_._HHH_b2_08055_af2_0001_0000200010_0000001_0_af2pred_0001_af2pred (protein)
chain: SSSSSEETRRRRELIEQLDEAVRKGDEELLEKLLEEAEEVAKELNSRLLELMVEQAESLLSSSSS
B17: il2ra_site2_2erj_normal_mot_90f6a21de4ed711cb697bb9f61d9c40c_0001_af2_000000135_0001_36_50_H_._HHH_b2_03327_0002_0000300012_0000001_0_af2pred_0001_af2pred_swapp … (protein)
chain: SSSDREEVAKRVVEELVEELGLDERAQELLELAAESAIEAGASPEQIEIFLRLLAEELLKIASSS
B18: il2ra_site2_2erj_normal_mot_HHH_b2_04203_000000297_0001_23_39_H_._HHH_b1_07506_0001_0000100002_0000001_0_af2pred_0001_af2pred (protein)
chain: SSSSDEEERELEELLRLVEELLRQGNPEEAKEVLAKALKIALENNDQEILERLARLFLLLKSSSS
B19: il2ra_site1_3nfp_sap_14_mot_HHH_b1_04676_af2_000000031_0001_1_20_H_._HHH_b2_00375_0001_0000200007_0000001_0_0001_af2pred_0001_af2pred_1 (protein)
chain: SSSSDLMKRAAELARRILELLREGDEEEAEELIEELKEIAKERNDETAKEFVERLEERVNSSSSS
B20: il2ra_site1_3nfp_sap_10_mot_HHH_b2_00441_000000105_0001_1_18_H_._HHH_b1_08277_af2_0001_0000500008_0000001_0_0001 (protein)
chain: SSSSSSATREVLELLQRAVELAERGNPEEAKELLEEAQEIAEENNNPNLERTVEVAKKILSSSSS
B21: il2ra_site1_3nfp_sap_23_mot_HHH_b1_03424_af2_000000207_0001_40_57_H_._HHH_b1_00024_af2_0001_0000100007_0000001_1_0001 (protein)
chain: SSSSTSDEFMERLVERAFEEGDRLQLRALIRLLRHALETMGNPIAHELLEEAEELLERLRSSSSS
B22: il2ra_site1_2b5i_normal_mot_ems_3hM_3687_af2_000000248_0001_45_64_H_._HHH_b1_01139_af2_0001_0000200007_0000001_0_af2pred_dldesign_0_af2pred (protein)
chain: SSSSSAKRAEVERLLEEARTLEDVREALKVVEEALKLAEELEDEELIQRAEDLARELMTRSSSSS
B23: il2ra_site1_2b5i_sap_9_mot_HHH_b2_04463_af2_000000056_0001_43_55_H_._HHH_b2_03111_af2_0001_0000100011_0000001_1_0001_af2pred_dldesign_0_af2pred (protein)
chain: SSSSSPNHRRMAAQAKEEAEEALKEGDKETVKKLIEELEALARLLRDPEALAAAKELKEKLSSSS
B24: il2ra_site2_3nfp_sap_17_mot_HHH_b2_03589_000000206_0001_42_55_H_._HHH_b2_04493_0001_0000900041_0000001_1_0001 (protein)
chain: DEEVKEFLEKAAKLGEFSPEQIVFIAAARLLLKGLSPEEIRKLLEKVVEELGDPELEEAIKHQNQ

biological target: il2ra, P01589; assay: yeast display titration

Apparent Kd, inactive:
B1 no binding seen
B2 no binding seen
B3 no binding seen
B4 no binding seen
B5 no binding seen
B6 no binding seen
B7 no binding seen
B8 no binding seen
B9 no binding seen
B10 no binding seen
B11 no binding seen
B12 no binding seen
B13 no binding seen
B14 no binding seen
B15 no binding seen
B16 no binding seen
B17 no binding seen
B18 no binding seen
B19 no binding seen
B20 no binding seen
B21 no binding seen
B22 no binding seen
B23 no binding seen
B24 no binding seen

2 entries picked at random from the list so far, as already listed:
Apparent Kd, inactive:
B2 no binding seen
B10 no binding seen
